Measured values reported in publication PMC7819943, “Rice protein-binding microarrays: a tool to detect cis-acting elements near promoter regions in rice”.
This is one part of the list.

Chains of the proteins cited; added tags and fusions are not shown.
UniProt Q0JBA9, entry or part of it: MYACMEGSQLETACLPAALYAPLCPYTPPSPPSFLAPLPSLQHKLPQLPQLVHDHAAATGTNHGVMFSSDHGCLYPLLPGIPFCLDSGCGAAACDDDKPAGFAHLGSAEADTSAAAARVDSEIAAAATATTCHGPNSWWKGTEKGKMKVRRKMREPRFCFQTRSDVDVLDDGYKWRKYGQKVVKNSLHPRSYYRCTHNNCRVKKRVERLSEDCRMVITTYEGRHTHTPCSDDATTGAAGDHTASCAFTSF

target: OsWRKY34 (Oryza sativa, UniProt Q0JBA9 1-250); assay: protein-binding microarray (RPBM); PBS, 2% BSA, 51.3 ng/ul salmon testes DNA, 50 uM zinc acetate, 200 nM TF, 25 C, 1 h; high values mean tight binding; details: protein: recombinant; tags: N-terminal polyhistidine and DsRed monomer fusion (pET32a); label: CyDye5-dUTP incorporated in the synthesized complementary strand; 3' TTTTT single-stranded linker to array surface; dsDNA, one strand shown
Procedure, shortened: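 Per-feature fluorescence intensity (arbitrary units), read on an Axon 4000B scanner, is the binding signal. Transcription factors carrying an N-terminal polyhistidine tag and DsRed fusion were expressed in E. coli BL21-CodonPlus and purified on Ni–NTA. A custom Agilent array, made double-stranded by primer extension with Cy5-dUTP and blocked with 2% BSA, was incubated with 200 nM protein in PBS, 2% BSA, salmon testes DNA and 50 µM zinc acetate at 25 °C for 1 h and then washed.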

Sequence | binding signal
TTTGTTTCTACTCTGTCTGTCTGATTGTTTGTGCTTCTGTCGGAGTCACCTAGTGCAG | 13300 fluorescence intensity (a.u.)
CCATTGTTGGCCCGTTGCTTCCTCTACTCTTTTTGTGGGACGGAGTCACCTAGTGCAG | 15400 fluorescence intensity (a.u.)
GAGAGTTGAGACATGGTAGCGGGCGGGTTTGTTAGCCATGCGGAGTCACCTAGTGCAG | 9900 fluorescence intensity (a.u.)
ATTATTTACCTGAATTGCCACCGCGTACCGCTTCGTTTCTCGGAGTCACCTAGTGCAG | 10300 fluorescence intensity (a.u.)
CTATTAGGTTGGGCCTAAGGTGATCTATTTTTGCGTGGTTCGGAGTCACCTAGTGCAG | 9340 fluorescence intensity (a.u.)
AATGCTTGTCTGATCCGTTTTCTCCTACTCTTGTAATTAACGGAGTCACCTAGTGCAG | 9360 fluorescence intensity (a.u.)
GTCCATCTATCCTACCTATCGCTTTATATATCCATGCATGCGGAGTCACCTAGTGCAG | 9200 fluorescence intensity (a.u.)
CATCCCCACTTCCAGCGCATCGATCCCCACCTCCGATGGACGGAGTCACCTAGTGCAG | 8270 fluorescence intensity (a.u.)
GACAGACGCAATCGCATGCAAACGTATCGCCTTCAATTTTCGGAGTCACCTAGTGCAG | 8960 fluorescence intensity (a.u.)
TAGTGTATCATTCATTCGCCTTGTCATGCTATTCAAATGACGGAGTCACCTAGTGCAG | 8580 fluorescence intensity (a.u.)
GGTCTCAGGTTGTCACTTTTCTATCCAGATTTATCGTAGTCGGAGTCACCTAGTGCAG | 8110 fluorescence intensity (a.u.)
GAAGGGGAAGGGAGGGGATGAGATAGTTGGGCTCGTACCTCGGAGTCACCTAGTGCAG | 8260 fluorescence intensity (a.u.)
ATGTGACTGAAAAGTTGTGTGTGTATGACAGGTTGATGTGCGGAGTCACCTAGTGCAG | 8030 fluorescence intensity (a.u.)
ACTATGTTGCTTTGTTTTCTTGATTCAACTCCGTACATTCCGGAGTCACCTAGTGCAG | 9040 fluorescence intensity (a.u.)
ACTCAACTATTTCTATCATTGATCGACTCCATCTGATTCACGGAGTCACCTAGTGCAG | 10300 fluorescence intensity (a.u.)
TGTTAAAAGTTCTTCCTTATTTGCTTACTCCTAGTCAATTCGGAGTCACCTAGTGCAG | 8770 fluorescence intensity (a.u.)
CGTCATCCACGGTCTGACCACTCTATCACCGCCAGTCTGACGGAGTCACCTAGTGCAG | 9130 fluorescence intensity (a.u.)
TCTACCTCTATGCCATGCATCCTTTGCTGCTAATTGTACACGGAGTCACCTAGTGCAG | 9590 fluorescence intensity (a.u.)
AGGATTTAGTGGGGTATTATAATTTCATGGTAAGATAGGACGGAGTCACCTAGTGCAG | 9910 fluorescence intensity (a.u.)
TTGTCATCTTTGGGTTACCAACTTGTTTTGATGTTGGATTCGGAGTCACCTAGTGCAG | 9680 fluorescence intensity (a.u.)
AAGGTTGGCATGACAATTCTCACTACTTGGACTAACAGTTCGGAGTCACCTAGTGCAG | 8310 fluorescence intensity (a.u.)

8 entries from above, with tabs:
Sequence	binding signal
CCATTGTTGGCCCGTTGCTTCCTCTACTCTTTTTGTGGGACGGAGTCACCTAGTGCAG	15400 fluorescence intensity (a.u.)
ATTATTTACCTGAATTGCCACCGCGTACCGCTTCGTTTCTCGGAGTCACCTAGTGCAG	10300 fluorescence intensity (a.u.)
CTATTAGGTTGGGCCTAAGGTGATCTATTTTTGCGTGGTTCGGAGTCACCTAGTGCAG	9340 fluorescence intensity (a.u.)
CATCCCCACTTCCAGCGCATCGATCCCCACCTCCGATGGACGGAGTCACCTAGTGCAG	8270 fluorescence intensity (a.u.)
GACAGACGCAATCGCATGCAAACGTATCGCCTTCAATTTTCGGAGTCACCTAGTGCAG	8960 fluorescence intensity (a.u.)
TAGTGTATCATTCATTCGCCTTGTCATGCTATTCAAATGACGGAGTCACCTAGTGCAG	8580 fluorescence intensity (a.u.)
CGTCATCCACGGTCTGACCACTCTATCACCGCCAGTCTGACGGAGTCACCTAGTGCAG	9130 fluorescence intensity (a.u.)
AAGGTTGGCATGACAATTCTCACTACTTGGACTAACAGTTCGGAGTCACCTAGTGCAG	8310 fluorescence intensity (a.u.)

Next entries follow.

Sequence | binding signal
TGCATTTTTTGTCAACTATGGGTCGTGTTCAATATTTTCTCGGAGTCACCTAGTGCAG | 9490 fluorescence intensity (a.u.)
TGCTGTGAGACACCCGAAGATCGTATATTTGCTCGTGGACCGGAGTCACCTAGTGCAG | 8110 fluorescence intensity (a.u.)
CGTTTTTTTGTGCGCAATTCCTCTTTTAAGTGGCTTTCATCGGAGTCACCTAGTGCAG | 8540 fluorescence intensity (a.u.)
AAGTCGGTTTTATTTTTTTTCTATTCAAATTTTATTTAAGCGGAGTCACCTAGTGCAG | 9250 fluorescence intensity (a.u.)
TCATCAGCAAGACCAGCAACCACTCGAGACTGTTTATCTCCGGAGTCACCTAGTGCAG | 10300 fluorescence intensity (a.u.)
CGAACATGGCCGATCGAATATGCGTCGTCTGTACCCGTACCGGAGTCACCTAGTGCAG | 9320 fluorescence intensity (a.u.)
ACCTGTCAGCGTGGCCCGTCTAGTTTTGTCCCAGTCCCAGCGGAGTCACCTAGTGCAG | 9450 fluorescence intensity (a.u.)
CCTCCTGCCCGCCGCCGCCGCTTTGGTCCTCGCCCGCATGCGGAGTCACCTAGTGCAG | 13300 fluorescence intensity (a.u.)
AATAGTCTGCTATTGTACCTGCTCTGAACTGTTGCCCATTCGGAGTCACCTAGTGCAG | 8120 fluorescence intensity (a.u.)
GTTTATTTTTCAGCCTTTGCTTTTAGATCACTAACAAGTTCGGAGTCACCTAGTGCAG | 9920 fluorescence intensity (a.u.)
TTGTTCTCTTTTTTTTTGCGTGCGTTGACTTTATCTTCAACGGAGTCACCTAGTGCAG | 19900 fluorescence intensity (a.u.)
CACTATATATATCATTCTCATTTGTATGTTTACGTAGTATCGGAGTCACCTAGTGCAG | 9790 fluorescence intensity (a.u.)
TTAACCTTTACTATAATGACATTGGACCCATATTTCGTAGCGGAGTCACCTAGTGCAG | 9270 fluorescence intensity (a.u.)
ACCGTTGACTTTTTAGCACATGTTTGACCGCTCGTCTTATCGGAGTCACCTAGTGCAG | 54800 fluorescence intensity (a.u.)
CAAAATACTGCCCACACACGCATACCCCAAATTCCACCCCCGGAGTCACCTAGTGCAG | 8240 fluorescence intensity (a.u.)
CGTCTGGCCCGAAAACCACTCTATTAATTCCATTTGCATCCGGAGTCACCTAGTGCAG | 8080 fluorescence intensity (a.u.)
TAAACCGCCAACATGCCCATGGTTTTGGACCTTTTTTTGTCGGAGTCACCTAGTGCAG | 8060 fluorescence intensity (a.u.)
CCCCAACACTGTCCTTGCAACTTTATCGGTTAGAATGCTACGGAGTCACCTAGTGCAG | 8320 fluorescence intensity (a.u.)
GTACGCGCACACACACATGAGACATATATACACCGATCTGCGGAGTCACCTAGTGCAG | 8580 fluorescence intensity (a.u.)
GTCTTCCTCGGTGTCTCCGCCCCGCCGTCTCCGATCTCCCCGGAGTCACCTAGTGCAG | 9950 fluorescence intensity (a.u.)
TTACATCCTTCATTTCTTTGGACCGTGCCTTGGAATAAGTCGGAGTCACCTAGTGCAG | 9620 fluorescence intensity (a.u.)
